Data as given in PubChem BioAssay AID652243 (Drosophila RNAi Screening Center, 2013).
Screen: 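Fly genes required for human androgen receptor driven transcription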 (primary screen). System: Drosophila S2R+ cells. Knock-down reagent: long dsRNA against Drosophila genes. Timing: 72 h (48 h, then 24 h hormone). Treatment: synthetic androgen R1881 at 10 nM for 24 h. Read-out: 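Per-well raw luminescence of the androgen-driven firefly reporter and of the Renilla control, two replicates each, without normalisation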. Direction: firefly reporter light: higher = more light from androgen-responsive reporter; Renilla control light: higher = more constitutive control signal (cell number, transfection). Hit rule: 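Hit when the log firefly-to-Renilla ratio dropped or increased by a fixed fold versus the mean of GFP or LacZ controls across duplicate plates; lowering cut given as 1.5 and as 3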. Calls: active = hit: reporter lowered or raised; inactive = no hit.
The deposit covers about 24,000 reagents; shown is a random part of those that have a named target and a result. Over the whole deposit, 246 (1%) got an active call. 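Plates not normalised; calls are printed but the firefly/Renilla ratio behind them is not deposited; fold cut for lowering reported inconsistently.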 The raw values are shown without normalisation. Reagents against one gene are numbered here. Names joined by + are all predicted targets of the reagent. Not stated in the record: the amount of reagent.

Target gene | dsRNA no. | firefly reporter light, replicate 1 | firefly reporter light, replicate 2 | Renilla control light, replicate 1 | Renilla control light, replicate 2 | Outcome
CG14232 + CG14230 | 1 | 6.61e5 | 5.80e5 | 1.37e6 | 1.08e6 | inactive
CG15414 | 1 | 1.16e5 | 1.25e5 | 7.63e5 | 9.15e5 | inactive
CG15414 | 2 | 6.41e5 | 4.94e5 | 1.85e6 | 1.87e6 | inactive
CG15414 | 3 | 3.27e5 | 5.40e5 | 9.27e5 | 1.35e6 | inactive
CG10184 | 1 | 78646 | 63687 | 5.18e5 | 6.00e5 | inactive
ccb | 1 | 2.66e5 | 1.51e5 | 4.86e5 | 3.88e5 | inactive
AdamTS-B | 1 | 3.20e5 | 3.29e5 | 3.17e6 | 3.02e6 | inactive
AdamTS-B | 2 | 2.68e5 | 2.41e5 | 4.72e5 | 7.45e5 | inactive
Sk2 | 1 | 1.14e6 | 9.55e5 | 1.87e6 | 1.45e6 | inactive
Sk2 | 2 | – | – | – | – | inactive
Sk2 | 3 | – | – | – | – | inactive
mRpL20 | 1 | 2.02e5 | 1.58e5 | 2.66e6 | 2.46e6 | inactive
AnxB9 | 1 | 85692 | 91748 | 6.73e5 | 6.40e5 | inactive
AnxB9 | 2 | 9.03e5 | 7.64e5 | 9.03e5 | 7.22e5 | inactive
AnxB9 | 3 | 8.38e5 | 7.75e5 | 1.74e6 | 1.54e6 | inactive
Gbs-70E | 1 | 1.54e5 | 1.55e5 | 1.38e6 | 2.00e6 | active
Gbs-70E | 2 | – | – | – | – | inactive
Gbs-70E | 3 | – | – | – | – | inactive
CG7139 | 1 | 29917 | 33467 | 3.25e5 | 2.87e5 | inactive
CG7139 | 2 | 5.76e5 | 8.63e5 | 5.96e5 | 9.02e5 | inactive
Glt | 1 | 6.51e5 | 7.96e5 | 1.23e6 | 1.22e6 | inactive
Glt | 2 | 4.85e5 | 4.36e5 | 1.66e6 | 1.37e6 | inactive
Tudor-SN | 1 | 8.82e5 | 1.06e6 | 8.52e5 | 1.12e6 | inactive
HP5 | 1 | 1.40e5 | 1.20e5 | 7.42e5 | 7.30e5 | inactive
HP5 | 2 | 3.80e5 | 3.15e5 | 9.03e5 | 4.61e5 | inactive
CG7550 | 1 | 3.22e5 | 2.24e5 | 3.42e6 | 1.68e6 | inactive
Mef2 | 1 | 5.36e5 | 4.03e5 | 1.68e6 | 1.47e6 | inactive
Mef2 | 2 | 5.51e5 | 6.52e5 | 5.29e5 | 5.28e5 | inactive
betaTry | 1 | 3.80e5 | 3.95e5 | 3.00e6 | 2.84e6 | inactive
betaTry | 2 | 5.67e5 | 6.83e5 | 3.12e6 | 1.96e6 | inactive
betaTry | 3 | 4.50e5 | 4.85e5 | 1.62e6 | 1.52e6 | inactive
CG30008 | 1 | 8.15e5 | 9.50e5 | 2.30e6 | 2.03e6 | inactive
CG30008 | 2 | 4.71e5 | 4.69e5 | 5.65e5 | 6.71e5 | inactive
osa | 1 | 66199 | 51514 | 4.40e5 | 4.40e5 | inactive
CG7987 | 1 | 46038 | 64905 | 5.21e5 | 6.41e5 | inactive
CG7987 | 2 | 3.58e5 | 3.12e5 | 1.20e6 | 1.23e6 | inactive
lncRNA:CR32660 | 1 | 6.55e5 | 1.06e6 | 1.51e6 | 2.13e6 | inactive
lncRNA:CR32660 | 2 | 3.56e5 | 4.36e5 | 8.79e5 | 9.97e5 | inactive

Next part; the last 6 above are carried over.
Target gene | dsRNA no. | firefly reporter light, replicate 1 | firefly reporter light, replicate 2 | Renilla control light, replicate 1 | Renilla control light, replicate 2 | Outcome
CG30008 | 2 | 4.71e5 | 4.69e5 | 5.65e5 | 6.71e5 | inactive
osa | 1 | 66199 | 51514 | 4.40e5 | 4.40e5 | inactive
CG7987 | 1 | 46038 | 64905 | 5.21e5 | 6.41e5 | inactive
CG7987 | 2 | 3.58e5 | 3.12e5 | 1.20e6 | 1.23e6 | inactive
lncRNA:CR32660 | 1 | 6.55e5 | 1.06e6 | 1.51e6 | 2.13e6 | inactive
lncRNA:CR32660 | 2 | 3.56e5 | 4.36e5 | 8.79e5 | 9.97e5 | inactive
edl | 1 | 1.03e6 | 1.29e6 | 1.96e6 | 1.85e6 | inactive
edl | 2 | 8.11e5 | 5.70e5 | 1.80e6 | 1.55e6 | inactive
CG3909 | 1 | 69058 | 1.22e5 | 1.35e6 | 1.98e6 | inactive
Sf3a1 | 1 | 84590 | 54763 | 5.70e5 | 5.11e5 | inactive
Vrp1 | 1 | 7.91e5 | 2.19e5 | 2.00e6 | 9.64e5 | inactive
Vrp1 | 2 | 4.22e5 | 4.39e5 | 5.85e5 | 5.41e5 | inactive
Desi | 1 | 77287 | 1.18e5 | 1.69e6 | 1.59e6 | inactive
ced-6 | 1 | 5.52e5 | 7.04e5 | 1.14e6 | 1.20e6 | inactive
ced-6 | 2 | 4.10e5 | 5.53e5 | 6.93e5 | 6.93e5 | inactive
mRpL51 | 1 | 5.16e5 | 8.24e5 | 1.83e6 | 1.94e6 | inactive
mRpL51 | 2 | 3.10e5 | 2.90e5 | 1.05e6 | 1.22e6 | inactive
Inos | 1 | 2.10e5 | 2.14e5 | 1.23e6 | 7.61e5 | inactive
Inos | 2 | 3.65e5 | 3.05e5 | 6.17e5 | 4.10e5 | inactive
BG642312 | 1 | 3.88e5 | 2.55e5 | 1.56e6 | 1.04e6 | inactive
snoRNA:Me28S-C3420b + RpS11 | 1 | 4.46e5 | 2.38e5 | 2.37e6 | 1.87e6 | inactive
CG2111 | 1 | 3.98e5 | 4.12e5 | 2.81e6 | 2.62e6 | inactive
CG2111 | 2 | 2.16e5 | 2.32e5 | 4.09e5 | 6.13e5 | inactive
Polr2L | 1 | 2.48e5 | 2.83e5 | 1.57e6 | 1.57e6 | inactive
Arl5 | 1 | 7.48e5 | 9.07e5 | 1.82e6 | 2.32e6 | inactive
Arl5 | 2 | 3.66e5 | 3.40e5 | 1.10e6 | 1.06e6 | inactive
